These are yes or no findings as the source states them, for the method shown. Some entries that bind do so weakly or less than the wild type. For part of these data: Sequences can lack the tags named with a protein.

The target of assay [1] is T1, symplekin, as subunit of purified recombinant CPSF or mCF3 (UniProt Q92797).
T1 sequence: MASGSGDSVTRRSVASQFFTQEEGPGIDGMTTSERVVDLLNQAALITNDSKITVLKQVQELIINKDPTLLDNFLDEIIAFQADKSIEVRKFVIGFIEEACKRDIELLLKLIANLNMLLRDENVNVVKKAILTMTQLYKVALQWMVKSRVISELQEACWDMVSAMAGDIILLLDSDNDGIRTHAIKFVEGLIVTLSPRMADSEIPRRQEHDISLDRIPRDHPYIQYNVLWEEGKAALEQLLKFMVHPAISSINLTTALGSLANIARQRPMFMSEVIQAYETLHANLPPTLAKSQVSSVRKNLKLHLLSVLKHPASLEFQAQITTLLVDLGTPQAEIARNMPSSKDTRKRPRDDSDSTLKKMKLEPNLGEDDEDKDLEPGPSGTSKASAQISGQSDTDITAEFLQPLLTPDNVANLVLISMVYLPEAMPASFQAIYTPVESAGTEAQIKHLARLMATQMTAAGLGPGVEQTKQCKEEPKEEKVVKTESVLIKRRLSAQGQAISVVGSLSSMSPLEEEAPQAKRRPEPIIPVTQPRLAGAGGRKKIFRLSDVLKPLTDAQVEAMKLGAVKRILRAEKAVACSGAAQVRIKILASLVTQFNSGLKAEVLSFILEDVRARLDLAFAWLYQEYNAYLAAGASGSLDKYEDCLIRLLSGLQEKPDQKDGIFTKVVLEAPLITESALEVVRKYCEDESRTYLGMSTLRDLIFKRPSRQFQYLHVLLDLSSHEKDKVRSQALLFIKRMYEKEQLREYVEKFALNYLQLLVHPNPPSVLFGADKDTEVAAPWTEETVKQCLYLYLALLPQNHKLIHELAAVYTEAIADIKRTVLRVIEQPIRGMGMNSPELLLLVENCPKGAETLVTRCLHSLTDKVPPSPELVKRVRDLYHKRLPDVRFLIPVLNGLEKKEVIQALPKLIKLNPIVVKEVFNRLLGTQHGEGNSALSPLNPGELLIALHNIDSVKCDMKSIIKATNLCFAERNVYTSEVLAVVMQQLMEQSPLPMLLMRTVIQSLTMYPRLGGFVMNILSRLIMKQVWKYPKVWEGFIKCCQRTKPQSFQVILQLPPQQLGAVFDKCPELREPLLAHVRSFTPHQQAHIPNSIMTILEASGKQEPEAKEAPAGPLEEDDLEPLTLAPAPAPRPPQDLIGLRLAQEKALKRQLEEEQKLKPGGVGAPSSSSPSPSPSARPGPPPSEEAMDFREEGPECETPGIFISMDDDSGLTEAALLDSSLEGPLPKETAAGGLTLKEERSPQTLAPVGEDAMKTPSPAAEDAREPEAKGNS
Description: cross-linking.

In a further assay the target is T2, CstF50 (UniProt Q05048).
T2 sequence: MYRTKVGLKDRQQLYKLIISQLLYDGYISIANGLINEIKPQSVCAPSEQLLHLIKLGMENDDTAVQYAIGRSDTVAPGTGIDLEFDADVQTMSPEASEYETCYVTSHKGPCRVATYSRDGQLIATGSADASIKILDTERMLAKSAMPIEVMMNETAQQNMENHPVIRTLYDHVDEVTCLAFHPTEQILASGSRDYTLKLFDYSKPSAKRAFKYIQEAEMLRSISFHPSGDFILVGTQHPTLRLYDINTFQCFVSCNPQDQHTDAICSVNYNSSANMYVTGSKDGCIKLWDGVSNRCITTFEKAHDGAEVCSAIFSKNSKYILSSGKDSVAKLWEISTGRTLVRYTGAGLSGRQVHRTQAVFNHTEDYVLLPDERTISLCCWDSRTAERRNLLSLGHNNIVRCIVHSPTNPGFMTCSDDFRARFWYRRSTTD
The experiment in a line: cross-linking.

In another assay the target is T3, CstF77 (UniProt Q12996).
T3 sequence: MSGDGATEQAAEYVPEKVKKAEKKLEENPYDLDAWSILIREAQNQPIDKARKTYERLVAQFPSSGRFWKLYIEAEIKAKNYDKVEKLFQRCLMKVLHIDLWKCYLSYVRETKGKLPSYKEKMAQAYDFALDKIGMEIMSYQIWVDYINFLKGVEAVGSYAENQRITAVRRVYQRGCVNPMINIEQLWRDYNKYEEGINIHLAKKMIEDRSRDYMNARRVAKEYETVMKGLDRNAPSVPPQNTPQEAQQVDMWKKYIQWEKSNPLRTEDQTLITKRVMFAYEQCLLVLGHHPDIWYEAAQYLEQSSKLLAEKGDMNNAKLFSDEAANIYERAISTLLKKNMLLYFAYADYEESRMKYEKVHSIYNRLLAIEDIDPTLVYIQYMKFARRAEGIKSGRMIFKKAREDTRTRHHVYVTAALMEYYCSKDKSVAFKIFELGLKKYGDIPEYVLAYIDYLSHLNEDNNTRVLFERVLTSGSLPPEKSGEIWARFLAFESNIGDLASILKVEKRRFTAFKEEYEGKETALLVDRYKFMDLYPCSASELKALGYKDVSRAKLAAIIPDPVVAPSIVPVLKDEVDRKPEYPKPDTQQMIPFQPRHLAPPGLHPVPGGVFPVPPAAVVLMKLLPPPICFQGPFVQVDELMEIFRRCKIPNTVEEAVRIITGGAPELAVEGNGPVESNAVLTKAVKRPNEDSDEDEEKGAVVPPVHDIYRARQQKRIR
The experiment in a line: cross-linking.

The next assay addresses T4, FLAG-tagged CstF64τ (UniProt Q9H0L4).
T4 sequence: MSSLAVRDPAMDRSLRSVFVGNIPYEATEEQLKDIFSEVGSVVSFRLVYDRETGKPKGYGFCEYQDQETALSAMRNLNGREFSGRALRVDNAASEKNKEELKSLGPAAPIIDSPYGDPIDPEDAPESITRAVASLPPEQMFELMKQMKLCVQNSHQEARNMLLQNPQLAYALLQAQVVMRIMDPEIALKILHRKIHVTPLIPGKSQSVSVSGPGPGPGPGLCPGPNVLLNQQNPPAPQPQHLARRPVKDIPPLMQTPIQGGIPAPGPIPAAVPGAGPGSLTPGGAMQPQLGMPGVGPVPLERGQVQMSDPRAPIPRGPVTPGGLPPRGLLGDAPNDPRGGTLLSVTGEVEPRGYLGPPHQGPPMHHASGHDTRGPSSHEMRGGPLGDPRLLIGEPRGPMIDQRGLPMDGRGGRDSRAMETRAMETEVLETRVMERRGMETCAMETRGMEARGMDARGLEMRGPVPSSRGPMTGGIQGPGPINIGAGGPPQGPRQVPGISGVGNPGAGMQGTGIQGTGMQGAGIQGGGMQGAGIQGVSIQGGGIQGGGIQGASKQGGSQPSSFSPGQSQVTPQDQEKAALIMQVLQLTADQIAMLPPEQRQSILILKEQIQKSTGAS
The experiment in a line: pull-down.

Assay [2] concerns the target T5, hClp1, wild-type (human), Q92989.
T5 chain: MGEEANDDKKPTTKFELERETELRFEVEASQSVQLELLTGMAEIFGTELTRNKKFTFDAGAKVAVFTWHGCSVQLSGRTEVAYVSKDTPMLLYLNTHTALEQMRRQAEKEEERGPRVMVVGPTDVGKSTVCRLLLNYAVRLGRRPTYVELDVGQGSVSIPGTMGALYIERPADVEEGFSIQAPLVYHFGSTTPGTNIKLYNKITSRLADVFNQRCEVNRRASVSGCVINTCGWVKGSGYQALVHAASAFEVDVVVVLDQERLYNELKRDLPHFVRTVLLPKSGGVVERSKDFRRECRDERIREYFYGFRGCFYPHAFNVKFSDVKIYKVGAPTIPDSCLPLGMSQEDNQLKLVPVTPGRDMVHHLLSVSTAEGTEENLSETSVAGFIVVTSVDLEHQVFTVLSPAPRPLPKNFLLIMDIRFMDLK
Description: cross-linking. The note with it: remark: other sources report otherwise.

The next assay concerns the target T6, hFip1 (human), Q6UN15.
T6 chain: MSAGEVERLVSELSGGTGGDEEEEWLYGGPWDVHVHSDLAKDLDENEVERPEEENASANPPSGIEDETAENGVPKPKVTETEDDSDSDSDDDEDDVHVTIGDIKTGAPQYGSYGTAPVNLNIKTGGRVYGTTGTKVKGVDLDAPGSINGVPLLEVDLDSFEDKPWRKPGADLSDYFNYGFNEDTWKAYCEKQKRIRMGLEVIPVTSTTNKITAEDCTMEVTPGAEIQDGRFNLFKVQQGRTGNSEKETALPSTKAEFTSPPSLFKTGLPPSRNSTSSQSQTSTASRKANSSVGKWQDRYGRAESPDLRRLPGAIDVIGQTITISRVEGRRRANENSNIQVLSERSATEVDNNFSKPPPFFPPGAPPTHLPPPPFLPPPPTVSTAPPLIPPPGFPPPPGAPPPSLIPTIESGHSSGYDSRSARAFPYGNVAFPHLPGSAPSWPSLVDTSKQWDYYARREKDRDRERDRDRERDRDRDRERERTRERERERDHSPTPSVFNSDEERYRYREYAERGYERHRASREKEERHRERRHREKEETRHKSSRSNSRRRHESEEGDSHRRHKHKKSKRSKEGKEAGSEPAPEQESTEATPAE
The experiment in a line: cross-linking. The note with it: remark: other sources report otherwise.

B1: CstF64 (protein, UniProt P33240 1-577)
chain: MAGLTVRDPAVDRSLRSVFVGNIPYEATEEQLKDIFSEVGPVVSFRLVYDRETGKPKGYGFCEYQDQETALSAMRNLNGREFSGRALRVDNAASEKNKEELKSLGTGAPVIESPYGETISPEDAPESISKAVASLPPEQMFELMKQMKLCVQNSPQEARNMLLQNPQLAYALLQAQVVMRIVDPEIALKILHRQTNIPTLIAGNPQPVHGAGPGSGSNVSMNQQNPQAPQAQSLGGMHVNGAPPLMQASMQGGVPAPGQMPAAVTGPGPGSLAPGGGMQAQVGMPGSGPVSMERGQVPMQDPRAAMQRGSLPANVPTPRGLLGDAPNDPRGGTLLSVTGEVEPRGYLGPPHQGPPMHHVPGHESRGPPPHELRGGPLPEPRPLMAEPRGPMLDQRGPPLDGRGGRDPRGIDARGMEARAMEARGLDARGLEARAMEARAMEARAMEARAMEARAMEVRGMEARGMDTRGPVPGPRGPIPSGMQGPSPINMGAVVPQGSRQVPVMQGTGMQGASIQGGSQPGGFSPGQNQVTPQDHEKAALIMQVLQLTADQIAMLPPEQRQSILILKEQIQKSTGAP
On to B1, for which the binding result (in assay [1]; with CstF50; with CstF77; with FLAG-tagged CstF64τ) was “binds” in each case.

B2: hClp1, wild-type, Q92989 1-425 (enzyme)
chain: T5 chain
Take B2: the binding result in assay [2] is reported as “binds”.

B3: hFip1, Q6UN15 1-594 (protein)
chain: T6 chain
For B3, in the assay with hFip1 (human), Q6UN15, the binding entry is recorded as “binds”.

The values above are taken from publication doi:10.1101/2021.11.02.466878.
